No constants are given. Whether binding was seen depends on the method and setting. In cells and extracts the contact can be indirect. A result given as binding can be weak or reduced; the word gives no strength. Sequences can lack the tags named with a protein.
B1: GFP-Wg (Wingless tagged with GFP) (ligand, UniProt P09615 18-468)
chain: GSSLSQVEGKQKSGRGRGSMWWGIAKVGEPNNITPIMYMDPAIHSTLRRKQRRLVRDNPGVLGALVKGANLAISECQHQFRNRRWNCSTRNFSRGKNLFGKIVDRGCRETSFIYAITSAAVTHSIARACSEGTIESCTCDYSHQSRSPQANHQAGSVAGVRDWEWGGCSDNIGFGFKFSREFVDTGERGRNLREKMNLHNNEAGRAHVQAEMRQECKCHGMSGSCTVKTCWMRLANFRVIGDNLKARFDGATRVQVTNSLRATNALAPVSPNAAGSNSVGSNGLIIPQSGLVYGEEEERMLNDHMPDILLENSHPISKIHHPNMPSPNSLPQAGQRGGRNGRRQGRKHNRYHFQLNPHNPEHKPPGSKDLVYLEPSPSFCEKNLRQGILGTHGRQCNETSLGVDGCGLMCCGRGYRRDEVVVVERCACTFHWCCEVKCKLCRTKKVIYTCL

Tests used:
[1] = biological target: T1, GFP-Wg (Wingless tagged with GFP) (Drosophila melanogaster) (UniProt P09615); experiment: co-IP; Extracts of S2 cells transfected with GFP-wg and sona. Lysis in HEPES buffer (20 mM HEPES, 70 mM KCl, 2 mM DTT, 0.1% NP40, 8% glycerol, 10 mM EDTA, 10 mM EGTA). Precleared lysates were incubated overnight at 4 °C with protein G-sepharose beads coupled to Sona-Pro or anti-GFP antibody. Detection by Western blot.
T1 sequence: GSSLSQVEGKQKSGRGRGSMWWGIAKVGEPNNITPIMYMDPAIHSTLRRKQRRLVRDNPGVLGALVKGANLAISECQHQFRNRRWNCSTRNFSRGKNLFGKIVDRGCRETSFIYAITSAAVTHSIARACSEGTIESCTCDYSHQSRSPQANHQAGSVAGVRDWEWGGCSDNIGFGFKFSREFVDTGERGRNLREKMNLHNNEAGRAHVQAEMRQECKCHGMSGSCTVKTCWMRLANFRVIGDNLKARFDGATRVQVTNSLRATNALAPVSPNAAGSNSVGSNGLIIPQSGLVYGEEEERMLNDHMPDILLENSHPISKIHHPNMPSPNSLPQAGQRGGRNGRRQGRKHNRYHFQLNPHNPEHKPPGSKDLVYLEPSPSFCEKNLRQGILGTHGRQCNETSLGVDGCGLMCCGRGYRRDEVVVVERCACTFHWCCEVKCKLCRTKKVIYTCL

[2] = biological target: Sol narae (Sona), Sona-PA form (Drosophila melanogaster); experiment: as above

| Molecule | binding [1] | binding [2] |
| --- | --- | --- |
| Sol narae (Sona), Sona-PA form (Drosophila melanogaster) (enzyme) | binds |  |
| B1 |  | binds |

Reference: PMC4989167
